Results: publication PMC5477285
No constants are given. Whether binding was seen depends on the method and setting. In cells and extracts the contact can be indirect. Some results given as binding are weak or reduced against the parent protein; the word gives no strength.

Protein sequences, listed by entry. Tags and fused reporters are not part of them. Residues count along the entry.
UniProt Q00960, residues 27-1482: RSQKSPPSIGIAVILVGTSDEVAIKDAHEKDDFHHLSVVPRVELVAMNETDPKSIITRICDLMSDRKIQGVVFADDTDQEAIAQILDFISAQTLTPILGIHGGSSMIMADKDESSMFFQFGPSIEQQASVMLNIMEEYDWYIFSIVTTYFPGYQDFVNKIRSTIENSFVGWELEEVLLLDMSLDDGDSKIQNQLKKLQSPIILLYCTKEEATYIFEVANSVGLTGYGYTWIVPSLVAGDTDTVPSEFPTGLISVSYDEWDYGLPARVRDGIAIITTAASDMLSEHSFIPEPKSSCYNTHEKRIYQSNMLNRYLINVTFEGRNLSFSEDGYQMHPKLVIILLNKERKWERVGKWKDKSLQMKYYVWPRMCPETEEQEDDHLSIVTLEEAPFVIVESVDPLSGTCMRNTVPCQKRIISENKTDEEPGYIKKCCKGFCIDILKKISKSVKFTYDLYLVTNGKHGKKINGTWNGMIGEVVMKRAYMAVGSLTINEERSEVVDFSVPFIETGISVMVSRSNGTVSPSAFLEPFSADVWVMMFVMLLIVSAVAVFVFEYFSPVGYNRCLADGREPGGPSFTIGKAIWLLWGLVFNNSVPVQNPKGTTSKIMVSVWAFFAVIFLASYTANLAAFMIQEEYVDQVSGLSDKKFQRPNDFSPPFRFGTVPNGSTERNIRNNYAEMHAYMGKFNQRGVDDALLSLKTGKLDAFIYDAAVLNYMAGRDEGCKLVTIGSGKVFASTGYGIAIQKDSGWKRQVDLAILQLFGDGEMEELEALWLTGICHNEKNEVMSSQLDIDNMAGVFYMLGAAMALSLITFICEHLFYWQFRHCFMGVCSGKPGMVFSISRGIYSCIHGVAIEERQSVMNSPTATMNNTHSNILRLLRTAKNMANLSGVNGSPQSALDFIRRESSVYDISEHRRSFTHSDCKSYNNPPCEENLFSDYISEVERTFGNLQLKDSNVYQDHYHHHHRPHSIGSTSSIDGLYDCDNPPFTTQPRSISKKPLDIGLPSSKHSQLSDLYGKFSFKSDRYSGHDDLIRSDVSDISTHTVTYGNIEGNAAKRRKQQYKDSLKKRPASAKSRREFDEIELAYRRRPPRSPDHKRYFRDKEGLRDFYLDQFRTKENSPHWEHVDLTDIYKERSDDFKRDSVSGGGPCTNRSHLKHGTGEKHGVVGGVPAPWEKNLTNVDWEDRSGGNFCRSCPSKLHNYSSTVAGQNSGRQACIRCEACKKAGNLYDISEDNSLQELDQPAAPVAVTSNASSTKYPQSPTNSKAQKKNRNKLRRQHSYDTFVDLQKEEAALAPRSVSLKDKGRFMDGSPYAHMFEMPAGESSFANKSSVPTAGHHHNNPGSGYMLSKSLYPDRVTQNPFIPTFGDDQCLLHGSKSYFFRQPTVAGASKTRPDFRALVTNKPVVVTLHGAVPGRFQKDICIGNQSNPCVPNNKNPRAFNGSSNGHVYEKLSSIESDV

Assays:
[1] = biological target: NMDA receptor subunit GluN2B (NR2B-SEP) (UniProt Q00960); assay: co-IP; transfected HeLa cells lysed in RIPA buffer; lysates incubated on ice overnight with anti-flag (0.1 ug) or anti-GFP (1 ug) antibody, Protein G-Agarose, washed with 1x RIPA buffer, western blot
[2] = biological target: NMDA receptor subunit GluN2A (NR2A-SEP) (UniProt Q00959); assay: as above

binding [1]: binds
binding [2]: no binding
Substance: β-arrestin-2 (Arrb2-flag) (from UniProt P29067 1-410)
